# Among all 410,000 compounds or so, about 18,000 (4.4%) were called active. The shares of active, inactive and inconclusive entries below differ from those in the screen. No stated cut-off is given here; in the data, active means activity change below about -60%; inconclusive means no clear call, values can overlap the other calls; inactive means above about -39%. Where a structure was tested more than once in an assay, its records may differ in their call.
# Experiment: qHTS Assay for inhibitors of the human cytomegalovirus (HCMV)
# Settings: HFF cells, HCMV-luciferase reporter, 72 h; at 57.5 µM; active compounds read low
# Summary of the method: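 Cell-based, HFFs, 1000 cells/well, 16 h 37C; cpds in DMSO + HCMV-luc, MOI 1 PFU/cell; 72 h 37C; OneGlo luminescence after 5 min RT; norm. to buffer vs Salinomycin 10uM.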
# On the % scale 0 is the no-effect control and ±100 the full control effect.
row,SMILES,"activity change, negative = inhibition"
1,CN(C)CCO[C@@H](c1ccc(Cl)cc1)c1ccccn1,inactive: 6.89%
2,O=C(NC(=S)Nc1ccc(Cl)cn1)c1cc([N+](=O)[O-])ccc1N1CCOCC1,inactive: -9.66%
3,O=C(CCCN1C(=O)/C(=C/c2cccc(Br)c2)SC1=S)NCCCN1CCOCC1,active: -90.2%
4,CCOC(=O)c1cccc(N2C(N)=NC(N)=NC2(C)C)c1,inconclusive: -40.1%
5,Cc1cccc2cc(CN(Cc3cccs3)C(=S)NCC3CCCO3)c(=O)[nH]c12 (stereo not drawn),inconclusive: -47.1%
6,CCOC(=O)C1=C(COCCN)NC(C)=C(C(=O)OC)C1c1ccccc1Cl (stereo not drawn),inconclusive: -41.3%
7,CCc1ccccc1NC(=O)CN1CCN(CC(=O)Nc2cc(C)ccc2OC)CC1,inactive: 21.5%
8,CCOC(=O)CNC(=O)CSc1nnc(NC(=O)c2ccc(S(=O)(=O)N3CCOCC3)cc2)s1,inactive: -5.04%
9,COc1ccc(N/C(C)=C/C(=S)Nc2ccccc2)cc1,inactive: -12%
10,CCC(=O)N1CCc2cc(Br)cc(S(=O)(=O)CCC(=O)N(CC)CC)c21,inconclusive: -41.1%
11,COc1ccc(-n2c(N)c(C#N)c3ccc([N+](=O)[O-])cc3c2=O)cc1,inactive: 8.13%
12,O=C(O)c1cccc(N2C(=O)/C(=C/c3ccc(SCc4ccc(Cl)cc4)o3)SC2=S)c1,inconclusive: -49.9%
13,O=C(Nc1cccc(-c2nnc(-c3ccccc3)o2)c1)C1CC1,inconclusive: -50.7%
14,COc1ccc(-c2nc(CCNS(=O)(=O)c3ccc4c(c3)OCCO4)cs2)cc1,inactive: -34.9%
15,CC(C)(C)[C@@H]1COC(=O)[C@H](Cc2ccc(F)cc2)C/C=C\C[C@@H](CC(=O)NCCO)C(=O)N1,inconclusive: -48.7%
16,COc1ccc(OC)c(NC(=O)c2cc(OC(C)=O)cc(C(=O)Nc3cc(OC)ccc3OC)c2)c1,inconclusive: -52.9%
17,O=C(NCc1ccccc1)Nc1cccn(Cc2ccccc2)c1=O,inconclusive: -56.3%
18,COCCO[C@H]1CCC2C3CC=C4C[C@@H](O)CC[C@]4(C)C3CC[C@@]21C (stereo partly drawn),inconclusive: -56.5%
19,O=[N+]([O-])c1ccc(-c2ccc(/C=N/Nc3nc(N4CCCCC4)nc(N4CCCCC4)n3)o2)cc1,inconclusive: -48.5%
20,COc1ccc(C)cc1NC(=O)C1CCCCN1S(=O)(=O)c1ccccc1 (stereo not drawn),inconclusive: -42%
21,Cn1c(=NC(=O)CS(=O)(=O)c2ccccc2)sc2cc([N+](=O)[O-])ccc21,active: -87.2%
22,CCOC(=O)CSc1nc2c(sc(=S)n2-c2ccccc2)c(=O)n1-c1ccc(OC)cc1OC,inactive: -25.3%
23,Cc1cc(C)c(S(=O)(=O)Nc2ccccc2C(=O)OCC(=O)NCc2ccccc2)c(C)c1,inconclusive: -47%
24,CCN(c1ccccc1)S(=O)(=O)c1ccc(C(=O)Oc2ccc(C(C)=O)cc2)cc1,inactive: 32.7%
25,O=C1NC(=O)C(Cc2cccc(Oc3ccccc3)c2)S1 (stereo not drawn),inconclusive: -56.1%
26,CC(NC(=O)C1CCN(c2nc3ccccc3nc2C(F)(F)F)CC1)c1ccccc1 (stereo not drawn),inactive: -4.13%
27,COc1cccc(-c2ccc3ncnc(NCc4cccnc4)c3c2)c1,active: -77.4%

row,SMILES,"activity change, negative = inhibition"
1,O=C(N[C@H]1CC1c1ccccc1)c1ccc([N+](=O)[O-])cc1 (stereo partly drawn),inconclusive: -48.3%
2,COCCCN1CC(=O)N2Cc3[nH]c4ccccc4c3C[C@H]2C1=O,inconclusive: -42.4%
3,O=c1cc(CSc2ccccc2)nc(-c2ccccc2)[nH]1,active: -105%
4,COc1ccc(CNC(=O)CN(c2ccccc2)S(=O)(=O)c2ccccc2[N+](=O)[O-])cc1,inconclusive: -46.9%
5,O=C(C1CCN(S(=O)(=O)c2ccccc2F)CC1)N1CCc2ccccc21,active: -67.9%
6,Cc1ccccc1CNC(=O)CCC(=O)N1CCOc2ccc(Cl)cc21,inactive: -36.8%
7,COc1cc(OC)c2cc(C(=O)N/N=C/c3cccc(OC)c3O)[nH]c2c1,active: -104%
8,O=C(Cc1sc(-c2ccccc2Cl)nc1-c1ccccc1)Nc1ccccc1,active: -89.7%
9,COc1ccc2nc(N(Cc3cccnc3)C(=O)C3CCCCC3)sc2c1,inconclusive: -43.4%
10,CCCSc1nc(N)nc2c1ncn2C1OC(CO)C(O)C1O (stereo not drawn),active: -70%
11,O=C(Nc1ccc(Cl)cc1C(=O)NCc1cccnc1)c1ccc(Cl)cc1Cl,inconclusive: -40.4%
12,CCC(C)(C)C1CCC(NC(=O)N2CCN(c3ccccc3O)CC2)CC1 (stereo not drawn),inconclusive: -43.6%
13,CCCN(CC1CC1)c1cc2c(c3c1ccn3C)C1CCC2C1 (stereo not drawn),active: -62.2%
14,CC(C)Oc1cccc(Nc2cc3c(cn2)cc(-c2cccc(C(F)(F)F)c2)n3C)c1,inconclusive: -40.4%
15,COc1ccc(N2CCN(CCCNC(=O)Cn3c(-c4cccs4)cc4ccccc43)CC2)cc1,inconclusive: -45.1%
16,COc1ccc(N=C2O/C(=C/c3sc(=S)n(CC4CCCO4)c3O)N=C2C#N)cc1 (stereo not drawn),inconclusive: -51%
17,COc1ccc(S(=O)(=O)N2CCOC2CNC(=O)C(=O)NCCCN(C)C)cc1C (stereo not drawn),inactive: 10.2%
18,COc1ccc(Nc2ncc(C(=O)N3CCN(c4ccc(F)cc4)CC3)c3ccccc23)cc1,active: -105%
19,COc1ccc(CNS(=O)(=O)c2ccc(-c3cnc(C4CC4)o3)cc2)cc1,inconclusive: -51.6%
20,O=C(CSCc1ccc(Cl)cc1)NCc1ccc2c(c1)OCO2,inconclusive: -44.3%
21,O=C(NCC1CC1)c1ccc2c3n(nc2c1)-c1ccc(Cl)cc1CO3,inactive: 44.6%
22,CCOc1ccc(NC(=O)[C@@H](NC(=O)OCc2ccccc2)[C@@H](C)CC)cc1,inconclusive: -44.7%
23,CCN(CC)CCNC(=O)c1ccc(NC(=O)c2cc(S(=O)(=O)N3CCCCC3)ccc2C)cc1,inactive: -25.4%
24,Fc1ccc2nc(-c3ccccc3)ccc2c1,inactive: 1.4%
25,CCOC(=O)C1=CCN(S(=O)(=O)c2ccccc2Br)C1c1cccc(C)c1 (stereo not drawn),inactive: -28.5%
26,O=C(Nc1ccccn1)c1nc(-c2ccccc2)n(-c2ccccc2)n1,inconclusive: -50%

# Random excerpt: 2 records from the list.
row,SMILES,"activity change, negative = inhibition"
15,COc1ccc(N2CCN(CCCNC(=O)Cn3c(-c4cccs4)cc4ccccc43)CC2)cc1,inconclusive: -45.1%
10,CCCSc1nc(N)nc2c1ncn2C1OC(CO)C(O)C1O (stereo not drawn),active: -70%

# — PubChem BioAssay AID1259415 (National Center for Advancing Translational Sciences (NCATS), 2018)
